Data source: PubChem BioAssay AID1259424 (University of Nebraska Medical Center, 2018)
Here is an unselected part of about 14,000 reagents. 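Higher correlation or smaller distance means closer resemblance to KSR1 loss; control wells, including KSR1 knockdowns, recur on many plates.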 Some reagents were tested in more than one well and are listed for each. Not all columns of the deposit are shown. Not stated in the record: the time to read-out.

Test: 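Find knockdowns that reproduce the expression shifts seen after KSR1 loss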 (primary screen)
Cell system: human HCT116 colon cancer cells
Reagents: siRNA pool against human genes, 50 nM
Measurement: 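Six signature mRNAs by branched-DNA multiplex assay, scaled to two housekeeping genes and non-targeting median, log2; matched to mean KSR1 knockdown profile by Pearson correlation and euclidean distance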
Direction: mean correlation with KSR1 profile: higher = expression change more like KSR1 knockdown

mean correlation with KSR1 profile | gene | PubChem SID
0.193 | PIK3AP1 (phosphoinositide-3-kinase adaptor protein 1) | SID364004709
0.314 | RNF146 (ring finger protein 146) | SID364003530
0.312 | RECQL4 (RecQ like helicase 4) | SID363995257
0.296 | ABCA11P (ATP binding cassette subfamily A member 11, pseudogene) | SID364003150
0.179 | DHX9 (DExH-box helicase 9) | SID363992634
-0.1 | PHOX2A (paired like homeobox 2A) | SID363996096
0.0561 | CEBPD (CCAAT enhancer binding protein delta) | SID363996120
-0.182 | CDK17 (cyclin dependent kinase 17) | SID363993764
0.503 | HNF4A (hepatocyte nuclear factor 4 alpha) | SID363991788
0.57 | TFR2 (transferrin receptor 2) | SID363994356
-0.331 | MGRN1 (mahogunin ring finger 1) | SID363999378
-0.0357 | PAGE1 (PAGE family member 1) | SID363994849
-0.0812 | CTSL (cathepsin L) | SID363993125
0.0488 | ESRRG (estrogen related receptor gamma) | SID363992700
-0.299 | NF2 (NF2, moesin-ezrin-radixin like (MERLIN) tumor suppressor) | SID363991601
-0.639 | ARCN1 (archain 1 coat protein complex I subunit delta) | SID363992879
0.338 | NPR1 (natriuretic peptide receptor 1) | SID363992191
0.196 | NPR1 (natriuretic peptide receptor 1) | SID363992191
0.249 | FOXB1 (forkhead box B1) | SID363998120
0.582 | SREBF1 (sterol regulatory element binding transcription factor 1) | SID363995180
-0.407 | ST8SIA3 (ST8 alpha-N-acetyl-neuraminide alpha-2,8-sialyltransferase 3) | SID363999690
0.442 | PPP6R2 (protein phosphatase 6 regulatory subunit 2) | SID363999028
0.659 | ABHD13 (abhydrolase domain containing 13) | SID364004233
0.0862 | FAHD2A (fumarylacetoacetate hydrolase domain containing 2A) | SID363999820
0.344 | GYPB (glycophorin B (MNS blood group)) | SID363993307
-0.0162 | UCHL1 (ubiquitin C-terminal hydrolase L1) | SID363995185
0.593 | SERTAD3 (SERTA domain containing 3) | SID363998475
0.562 | CLDN1 (claudin 1) | SID364002009
-0.127 | ANK1 (ankyrin 1) | SID363991376
-0.214 | TMEM143 (transmembrane protein 143) | SID364000934
-0.0916 | H3-4 (H3.4 histone, cluster member) | SID363994591
-0.101 | OR2B6 (olfactory receptor family 2 subfamily B member 6) | SID363998262
-0.502 | IL32 (interleukin 32) | SID363995221
-0.0193 | MCTP2 (multiple C2 and transmembrane domain containing 2) | SID364000996

Entries above whose gene name begins with N or n (3):
mean correlation with KSR1 profile | gene | PubChem SID
-0.299 | NF2 (NF2, moesin-ezrin-radixin like (MERLIN) tumor suppressor) | SID363991601
0.338 | NPR1 (natriuretic peptide receptor 1) | SID363992191
0.196 | NPR1 (natriuretic peptide receptor 1) | SID363992191
